Here are results for 42 sequences from PMC7819943, “Rice protein-binding microarrays: a tool to detect cis-acting elements near promoter regions in rice”.

Amino acid sequences for entries named in this document (tags omitted).
UniProt Q0JBA9, entry or part of it: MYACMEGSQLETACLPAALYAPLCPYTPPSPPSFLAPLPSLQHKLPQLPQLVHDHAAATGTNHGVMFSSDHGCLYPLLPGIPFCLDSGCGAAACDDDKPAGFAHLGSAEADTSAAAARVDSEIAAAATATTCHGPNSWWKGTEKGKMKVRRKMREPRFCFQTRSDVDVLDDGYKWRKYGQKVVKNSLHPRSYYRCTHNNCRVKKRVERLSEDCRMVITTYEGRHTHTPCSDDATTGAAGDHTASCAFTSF

This is one part of the list.

The test concerns the target OsWRKY34 (Oryza sativa, UniProt Q0JBA9 1-250). Description: protein-binding microarray (RPBM); PBS, 2% BSA, 51.3 ng/ul salmon testes DNA, 50 uM zinc acetate, 200 nM TF, 25 C, 1 h; high values mean tight binding. Particulars: protein: recombinant; tags: N-terminal polyhistidine and DsRed monomer fusion (pET32a); label: CyDye5-dUTP incorporated in the synthesized complementary strand; 3' TTTTT single-stranded linker to array surface; dsDNA, one strand shown. The essentials: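 An Axon 4000B scanner gave the binding signal as per-feature fluorescence intensity in arbitrary units. This followed washing of a custom Agilent array that had been incubated for 1 h at 25 °C with 200 nM protein in PBS, 2% BSA, salmon testes DNA and 50 µM zinc acetate. The proteins were transcription factors fused at the N-terminus to polyhistidine and DsRed, expressed in E. coli BL21-CodonPlus and purified on Ni–NTA.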
As for “CTGATCGAGCACAACATGTCCAGCACCACCAGCTCTCGCCCGGAGTCACCTAGTGCAG”, the binding signal was 9210 fluorescence intensity (a.u.).

Regarding “ATATTTTTTGTTGGACCAACACATTATCTTATTGGGCTGACGGAGTCACCTAGTGCAG”, the binding signal was 8620 fluorescence intensity (a.u.).

Regarding “CTTCTCTTACCTCGGTGGGTGCTTAATGTGCTGGTTTGAACGGAGTCACCTAGTGCAG”, the binding signal is 8740 fluorescence intensity (a.u.).

Regarding “CGAAATAAATACTAGGTCGGTCCAACCCCGAGGTTTCTTCCGGAGTCACCTAGTGCAG”, the binding signal is 8950 fluorescence intensity (a.u.).

As to “GTACCATTACACGGGTCTCTTTACATGTTAAATAAATTTTCGGAGTCACCTAGTGCAG”, the binding signal was 9650 fluorescence intensity (a.u.).

Take “CTACAAAATAAACGTGTTTATCCAACATCCTCGTCTGTAACGGAGTCACCTAGTGCAG”: the binding signal is 8050 fluorescence intensity (a.u.).

For “CACAGCGATTTCTTCTCTCTCTTTCGCCGTCGCATTCGCCCGGAGTCACCTAGTGCAG”, the binding signal is 12800 fluorescence intensity (a.u.).

For the sequence “ATTCCTTCTTGTTATTTGTGGTTTTGAGATGTTTTTGCTTCGGAGTCACCTAGTGCAG”, the binding signal was 8840 fluorescence intensity (a.u.).

For the sequence “TGCCACCGCGCTGCCCGCCGTCTACCGCCACCGCCCCGCGCGGAGTCACCTAGTGCAG”, the binding signal was 8110 fluorescence intensity (a.u.).

As to “TTAAGTTTTCAATGATTTTTTTCTACTTGACTTTTTTTTTCGGAGTCACCTAGTGCAG”, the binding signal is 8540 fluorescence intensity (a.u.).

On to “CTTTGGTCAAAGTCAAATTGTTTTAAGTTTGACCAAGTTTCGGAGTCACCTAGTGCAG”, for which the binding signal was 19600 fluorescence intensity (a.u.).

As for “GCCCTTGCTTTACGATTTAATTGTGATTTTACCCTTGTTTCGGAGTCACCTAGTGCAG”, the binding signal was 9250 fluorescence intensity (a.u.).

Turning to “AAGCTTCTCGCCGTGCTCGTCCACATTCCGCCAGCTGGCCCGGAGTCACCTAGTGCAG”, the binding signal is 8240 fluorescence intensity (a.u.).

With “GGTTTTGCTATTTCACTTGCGACAGTTTTTCGGGTTCCTACGGAGTCACCTAGTGCAG”, the binding signal was 8310 fluorescence intensity (a.u.).

Consider “ACGTCTTCCTGTCCACGTCGTTGAACTTAACCACGAAGTACGGAGTCACCTAGTGCAG”, for which the binding signal is 11800 fluorescence intensity (a.u.).

“GAACGGTTTACACATAGCCATGCACCGATTTTTCTCGATACGGAGTCACCTAGTGCAG”: the binding signal is 8780 fluorescence intensity (a.u.).

Take “GAATTCTTGTGTTCCAAGCATTTCGATTTGCTCCTCTCTTCGGAGTCACCTAGTGCAG”: the binding signal is 9020 fluorescence intensity (a.u.).

As to “CAACCTGATCCTATCTCACCATCTCGTGATAAAAGCGCCTCGGAGTCACCTAGTGCAG”, the binding signal was 9540 fluorescence intensity (a.u.).

Take “CTGTTCTGGCGCTCCTCTCTACGGGTGATCGCTAACTTGCCGGAGTCACCTAGTGCAG”: the binding signal was 8390 fluorescence intensity (a.u.).

Take “GTGATACTAATAGCAGTTTCTTTGCTTGTTTGTTTGTTTCCGGAGTCACCTAGTGCAG”: the binding signal is 8130 fluorescence intensity (a.u.).

In the case of “GCTCGGTGTCCTTACAAATTGTTTGCTTTGCACTTATTATCGGAGTCACCTAGTGCAG”, the binding signal was 8940 fluorescence intensity (a.u.).

On to “GATGACGCCGTTGACTTTTTCTCACATGTTTGACCAATCGCGGAGTCACCTAGTGCAG”, for which the binding signal was 36900 fluorescence intensity (a.u.).

As to “TCAAAATATTTGACACCGTTGACTTTTTAGGACGTGTTTACGGAGTCACCTAGTGCAG”, the binding signal is 24900 fluorescence intensity (a.u.).

As to “TTTTGACTTTACCATTCAATTGCCTTAAACCAACGGGCCTCGGAGTCACCTAGTGCAG”, the binding signal was 8270 fluorescence intensity (a.u.).

Consider “TGTCCATATTCTAATTAATTGGTGAACGGTACCATTTCCGCGGAGTCACCTAGTGCAG”, for which the binding signal is 8200 fluorescence intensity (a.u.).

On to “GGTAAATTTTATGTAAATTAACCCGGGTATTATGGTTCTTCGGAGTCACCTAGTGCAG”, for which the binding signal is 8330 fluorescence intensity (a.u.).

“TCGTCTCCTCGCCCGCCGCTTTGTGCCGAATCCCCATCCTCGGAGTCACCTAGTGCAG”: the binding signal was 9060 fluorescence intensity (a.u.).

On to “TTGGGTTGGGTTGGGTGGTCCATTCTGTACGGTGCGCCGGCGGAGTCACCTAGTGCAG”, for which the binding signal was 19600 fluorescence intensity (a.u.).

Take “CTAGTTGCATCAGTATAGCACATTCCTCTCTGATCGTTTGCGGAGTCACCTAGTGCAG”: the binding signal is 9570 fluorescence intensity (a.u.).

“TTGCCTATTCACCCAAATTATTTGCTCATTCTCTGTAACCCGGAGTCACCTAGTGCAG”: the binding signal was 11500 fluorescence intensity (a.u.).

Take “AGCTCTTCACTTTCCTTGTCTGCTCCAGGAGTAAGTAGCCCGGAGTCACCTAGTGCAG”: the binding signal was 9470 fluorescence intensity (a.u.).

For the sequence “TCGCCCAACTGCTCGCATCTTTCTCTCTGCCCGTGCCAATCGGAGTCACCTAGTGCAG”, the binding signal is 10900 fluorescence intensity (a.u.).

As for “AAATTAGACACAGTAATCTATTTTTTTTCTCTTTATTTACCGGAGTCACCTAGTGCAG”, the binding signal was 9100 fluorescence intensity (a.u.).

With “TTCAAATCTCATCCGAATTTTTTGTTTTTTATTTTTTTTTCGGAGTCACCTAGTGCAG”, the binding signal is 8280 fluorescence intensity (a.u.).

Take “CCCCTGTCAATACAACCAGCTGCACGCCCATTCGTCTCAACGGAGTCACCTAGTGCAG”: the binding signal was 10900 fluorescence intensity (a.u.).

Consider “GTCACATTTTCTACATCTCATCCTTCCATTCCACTCCCTTCGGAGTCACCTAGTGCAG”, for which the binding signal is 11200 fluorescence intensity (a.u.).

In the case of “TTTTCTCCGCGTGGCCTTTTGTGTTTCTTTTTTTCTGTAACGGAGTCACCTAGTGCAG”, the binding signal is 15300 fluorescence intensity (a.u.).

For the sequence “GCAGTTTTCAATACCATTTCTGGTGTTTGTTTTGTACCGCCGGAGTCACCTAGTGCAG”, the binding signal is 8780 fluorescence intensity (a.u.).

With “ACTCCTCTATTTGGTAGTATTGTTTTTCGGCTCGTGAGTTCGGAGTCACCTAGTGCAG”, the binding signal was 8670 fluorescence intensity (a.u.).

For the sequence “TCACCATGTGCGAGCCGCCAATTCAAACTCTTTGTCTGTTCGGAGTCACCTAGTGCAG”, the binding signal was 12300 fluorescence intensity (a.u.).

In the case of “ACCAGCTTCAACTCGGCATCTCCAAAAATTTTATCCACCTCGGAGTCACCTAGTGCAG”, the binding signal was 8470 fluorescence intensity (a.u.).

Regarding “AACTTGGCCTCTTTTCATGCCTCTGAACCTACGAGTTCACCGGAGTCACCTAGTGCAG”, the binding signal was 9370 fluorescence intensity (a.u.).
